The list shows a part of the results. The calls were merged from several studies; some rest on single wells.
Columns and labels:
Conditions in all cases: stereoisomer not certain
O52I2 = system: T1, O52I2
T1 sequence (whole entry): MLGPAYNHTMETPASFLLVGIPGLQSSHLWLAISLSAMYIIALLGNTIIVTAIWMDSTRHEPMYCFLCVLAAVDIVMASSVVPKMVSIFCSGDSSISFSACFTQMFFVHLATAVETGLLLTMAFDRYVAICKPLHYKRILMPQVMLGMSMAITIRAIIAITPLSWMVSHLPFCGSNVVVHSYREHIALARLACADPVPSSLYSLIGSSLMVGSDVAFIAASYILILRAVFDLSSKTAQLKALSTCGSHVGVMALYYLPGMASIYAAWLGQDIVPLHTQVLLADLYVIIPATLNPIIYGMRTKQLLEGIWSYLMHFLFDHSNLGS
Procedure, shortened: (§1)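 Values were gathered from published papers (main text and supplementary material), with extra details requested from the original authors when needed, and checked for typos and inconsistencies. Each receptor–molecule pair is called responsive (active) if the original authors judged the measured signal statistically different from baseline, and non-responsive (inactive) otherwise. Assay methods varied by source, often transient mammalian cell-line luciferase assays. Recorded details include cell line, G-protein, co-transfected protein and tags.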

O52J3 = system: T2, O52J3
T2 sequence (whole entry): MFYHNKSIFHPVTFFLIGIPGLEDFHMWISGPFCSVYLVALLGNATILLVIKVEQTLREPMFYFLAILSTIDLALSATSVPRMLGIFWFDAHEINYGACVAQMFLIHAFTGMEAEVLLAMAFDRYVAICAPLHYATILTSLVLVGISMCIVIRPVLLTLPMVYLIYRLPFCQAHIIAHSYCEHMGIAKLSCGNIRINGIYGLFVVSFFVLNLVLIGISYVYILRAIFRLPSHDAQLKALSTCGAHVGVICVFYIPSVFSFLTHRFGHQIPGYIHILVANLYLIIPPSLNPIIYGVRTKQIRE
Procedure, shortened: as §1

O52L1 = system: T3, O52L1
T3 sequence (whole entry): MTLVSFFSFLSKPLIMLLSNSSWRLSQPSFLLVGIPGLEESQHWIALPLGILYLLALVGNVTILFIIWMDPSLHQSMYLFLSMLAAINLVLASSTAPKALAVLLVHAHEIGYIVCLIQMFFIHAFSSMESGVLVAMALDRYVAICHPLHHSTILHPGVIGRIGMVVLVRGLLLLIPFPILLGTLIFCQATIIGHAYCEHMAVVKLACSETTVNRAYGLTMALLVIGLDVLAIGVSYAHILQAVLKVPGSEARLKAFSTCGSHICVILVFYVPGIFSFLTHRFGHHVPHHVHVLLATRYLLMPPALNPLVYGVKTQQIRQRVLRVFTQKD
Procedure, shortened: as §1

O52L2 = system: T4, O52L2
T4 sequence (whole entry): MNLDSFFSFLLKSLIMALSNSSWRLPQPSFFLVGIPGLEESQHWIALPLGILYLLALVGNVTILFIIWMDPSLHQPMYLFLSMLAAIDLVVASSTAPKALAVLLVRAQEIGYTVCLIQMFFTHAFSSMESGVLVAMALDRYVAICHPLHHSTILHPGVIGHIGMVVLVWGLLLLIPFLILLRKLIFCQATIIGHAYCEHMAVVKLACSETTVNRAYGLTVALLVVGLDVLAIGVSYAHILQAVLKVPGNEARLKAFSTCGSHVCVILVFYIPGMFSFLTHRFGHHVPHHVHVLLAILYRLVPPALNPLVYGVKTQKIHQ
Procedure, shortened: as §1

O52M1 = system: T5, O52M1
T5 sequence (whole entry): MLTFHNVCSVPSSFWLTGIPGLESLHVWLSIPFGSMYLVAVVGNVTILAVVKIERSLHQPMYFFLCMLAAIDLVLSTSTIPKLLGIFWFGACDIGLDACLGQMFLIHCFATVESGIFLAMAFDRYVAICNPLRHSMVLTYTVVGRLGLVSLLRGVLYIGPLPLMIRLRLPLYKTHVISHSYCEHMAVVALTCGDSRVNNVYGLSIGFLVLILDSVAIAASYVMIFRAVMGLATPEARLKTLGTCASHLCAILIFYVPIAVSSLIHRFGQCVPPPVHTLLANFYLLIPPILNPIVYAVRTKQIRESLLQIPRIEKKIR
Procedure, shortened: as §1

O52N1 = system: T6, O52N1
T6 sequence (whole entry): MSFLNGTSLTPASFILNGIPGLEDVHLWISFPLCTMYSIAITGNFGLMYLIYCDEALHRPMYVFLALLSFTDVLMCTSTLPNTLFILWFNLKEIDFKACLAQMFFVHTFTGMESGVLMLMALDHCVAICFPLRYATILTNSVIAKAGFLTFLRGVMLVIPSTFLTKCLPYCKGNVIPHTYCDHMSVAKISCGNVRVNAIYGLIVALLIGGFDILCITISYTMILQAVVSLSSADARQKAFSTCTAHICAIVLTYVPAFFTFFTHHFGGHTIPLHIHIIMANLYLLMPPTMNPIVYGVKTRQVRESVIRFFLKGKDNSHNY
Procedure, shortened: as §1

O52N2 = system: T7, O52N2
T7 sequence (whole entry): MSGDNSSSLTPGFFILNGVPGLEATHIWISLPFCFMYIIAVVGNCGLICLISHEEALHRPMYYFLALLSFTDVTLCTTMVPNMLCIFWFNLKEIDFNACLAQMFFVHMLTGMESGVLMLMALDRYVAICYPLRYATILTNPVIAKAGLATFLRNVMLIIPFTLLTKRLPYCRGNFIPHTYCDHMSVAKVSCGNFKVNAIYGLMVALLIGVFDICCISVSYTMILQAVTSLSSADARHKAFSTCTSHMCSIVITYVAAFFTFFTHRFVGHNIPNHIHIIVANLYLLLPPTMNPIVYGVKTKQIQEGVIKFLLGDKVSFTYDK
Procedure, shortened: as §1

O52N4 = system: T8, O52N4
T8 sequence (whole entry): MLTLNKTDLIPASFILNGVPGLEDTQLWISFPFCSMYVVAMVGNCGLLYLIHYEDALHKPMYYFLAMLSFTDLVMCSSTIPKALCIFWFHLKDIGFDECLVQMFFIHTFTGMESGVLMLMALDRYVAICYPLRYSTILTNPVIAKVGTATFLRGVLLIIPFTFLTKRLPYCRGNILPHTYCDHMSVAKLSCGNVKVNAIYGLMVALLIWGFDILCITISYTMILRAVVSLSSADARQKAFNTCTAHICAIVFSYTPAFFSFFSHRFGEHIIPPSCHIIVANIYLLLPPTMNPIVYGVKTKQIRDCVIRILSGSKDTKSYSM
Procedure, shortened: as §1

O52P1 = system: T9, O52P1
T9 sequence (whole entry): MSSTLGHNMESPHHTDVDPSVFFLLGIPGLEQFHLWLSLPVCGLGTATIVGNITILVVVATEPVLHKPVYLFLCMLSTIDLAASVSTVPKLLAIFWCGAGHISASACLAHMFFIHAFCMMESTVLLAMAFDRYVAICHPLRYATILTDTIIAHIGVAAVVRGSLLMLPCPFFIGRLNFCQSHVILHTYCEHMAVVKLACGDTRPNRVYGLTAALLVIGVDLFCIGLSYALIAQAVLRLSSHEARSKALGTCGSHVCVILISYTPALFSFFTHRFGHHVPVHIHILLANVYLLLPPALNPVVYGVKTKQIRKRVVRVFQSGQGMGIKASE
Procedure, shortened: as §1

O52R1 = system: T10, O52R1
T10 sequence (whole entry): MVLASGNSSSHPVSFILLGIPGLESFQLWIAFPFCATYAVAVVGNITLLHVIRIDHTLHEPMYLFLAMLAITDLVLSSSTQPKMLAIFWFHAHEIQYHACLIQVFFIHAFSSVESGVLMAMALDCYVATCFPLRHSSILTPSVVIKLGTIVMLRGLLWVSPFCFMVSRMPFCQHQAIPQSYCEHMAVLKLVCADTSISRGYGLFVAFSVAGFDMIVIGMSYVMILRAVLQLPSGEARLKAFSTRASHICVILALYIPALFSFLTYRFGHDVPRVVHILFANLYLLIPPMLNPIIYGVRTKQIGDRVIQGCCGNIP
Procedure, shortened: as §1

O52W1 = system: T11, O52W1
T11 sequence (whole entry): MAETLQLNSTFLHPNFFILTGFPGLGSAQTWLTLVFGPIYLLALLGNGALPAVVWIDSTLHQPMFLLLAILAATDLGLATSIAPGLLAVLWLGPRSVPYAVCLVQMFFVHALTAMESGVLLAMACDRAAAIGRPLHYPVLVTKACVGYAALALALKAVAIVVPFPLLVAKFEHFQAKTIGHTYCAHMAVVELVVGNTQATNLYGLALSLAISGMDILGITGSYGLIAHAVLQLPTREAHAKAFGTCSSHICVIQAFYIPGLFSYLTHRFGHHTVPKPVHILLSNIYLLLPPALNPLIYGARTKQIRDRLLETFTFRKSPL
Procedure, shortened: as §1

O56A3 = system: T12, O56A3
T12 sequence (whole entry): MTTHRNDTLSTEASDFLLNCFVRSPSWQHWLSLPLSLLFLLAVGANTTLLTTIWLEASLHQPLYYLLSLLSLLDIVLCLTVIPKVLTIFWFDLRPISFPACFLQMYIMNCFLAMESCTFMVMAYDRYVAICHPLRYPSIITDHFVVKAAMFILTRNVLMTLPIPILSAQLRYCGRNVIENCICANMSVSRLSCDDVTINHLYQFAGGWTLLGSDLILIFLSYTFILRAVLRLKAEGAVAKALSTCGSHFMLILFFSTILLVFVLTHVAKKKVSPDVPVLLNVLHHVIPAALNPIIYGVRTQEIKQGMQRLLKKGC
Procedure, shortened: as §1

O56B1 = system: T13, O56B1
T13 sequence (whole entry): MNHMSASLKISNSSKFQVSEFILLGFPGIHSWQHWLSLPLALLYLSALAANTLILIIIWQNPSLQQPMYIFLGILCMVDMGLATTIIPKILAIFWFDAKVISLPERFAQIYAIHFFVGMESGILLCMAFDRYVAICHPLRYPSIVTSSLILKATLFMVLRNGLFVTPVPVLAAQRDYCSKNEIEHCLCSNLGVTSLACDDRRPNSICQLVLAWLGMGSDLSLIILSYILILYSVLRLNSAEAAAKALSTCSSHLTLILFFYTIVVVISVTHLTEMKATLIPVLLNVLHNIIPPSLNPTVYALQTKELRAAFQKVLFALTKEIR
Procedure, shortened: as §1

O56B4 = system: T14, O56B4
T14 sequence (whole entry): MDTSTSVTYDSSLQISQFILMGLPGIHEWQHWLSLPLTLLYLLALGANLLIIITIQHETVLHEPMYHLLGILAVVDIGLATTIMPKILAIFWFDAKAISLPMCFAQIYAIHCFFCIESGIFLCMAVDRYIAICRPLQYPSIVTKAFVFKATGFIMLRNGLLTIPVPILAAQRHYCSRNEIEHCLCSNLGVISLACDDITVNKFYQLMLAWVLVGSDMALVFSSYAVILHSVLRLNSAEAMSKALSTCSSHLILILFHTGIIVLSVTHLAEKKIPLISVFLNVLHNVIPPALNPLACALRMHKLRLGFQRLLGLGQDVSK
Procedure, shortened: as §1

O5AC2 = system: T15, O5AC2
T15 sequence (whole entry): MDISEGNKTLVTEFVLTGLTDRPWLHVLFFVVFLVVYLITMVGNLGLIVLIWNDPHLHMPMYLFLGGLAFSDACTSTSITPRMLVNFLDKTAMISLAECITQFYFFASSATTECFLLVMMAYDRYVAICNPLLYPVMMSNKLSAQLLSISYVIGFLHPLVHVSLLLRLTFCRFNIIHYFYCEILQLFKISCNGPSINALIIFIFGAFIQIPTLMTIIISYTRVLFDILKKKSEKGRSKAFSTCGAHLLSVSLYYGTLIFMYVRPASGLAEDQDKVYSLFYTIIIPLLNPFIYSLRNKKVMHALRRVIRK
Procedure, shortened: as §1

O5AK2 = system: T16, O5AK2
T16 sequence (whole entry): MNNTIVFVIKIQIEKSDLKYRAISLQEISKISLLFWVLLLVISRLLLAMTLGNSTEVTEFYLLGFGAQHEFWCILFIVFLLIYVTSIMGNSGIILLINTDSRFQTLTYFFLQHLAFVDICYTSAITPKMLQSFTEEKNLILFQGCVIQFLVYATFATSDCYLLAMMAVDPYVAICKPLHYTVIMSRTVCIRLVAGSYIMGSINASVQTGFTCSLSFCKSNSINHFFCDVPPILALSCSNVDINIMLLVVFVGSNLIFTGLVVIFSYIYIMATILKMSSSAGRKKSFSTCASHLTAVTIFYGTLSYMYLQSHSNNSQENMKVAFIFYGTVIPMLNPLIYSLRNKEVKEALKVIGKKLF
Procedure, shortened: as §1

O5AK3 = system: T17, O5AK3
T17 sequence (whole entry): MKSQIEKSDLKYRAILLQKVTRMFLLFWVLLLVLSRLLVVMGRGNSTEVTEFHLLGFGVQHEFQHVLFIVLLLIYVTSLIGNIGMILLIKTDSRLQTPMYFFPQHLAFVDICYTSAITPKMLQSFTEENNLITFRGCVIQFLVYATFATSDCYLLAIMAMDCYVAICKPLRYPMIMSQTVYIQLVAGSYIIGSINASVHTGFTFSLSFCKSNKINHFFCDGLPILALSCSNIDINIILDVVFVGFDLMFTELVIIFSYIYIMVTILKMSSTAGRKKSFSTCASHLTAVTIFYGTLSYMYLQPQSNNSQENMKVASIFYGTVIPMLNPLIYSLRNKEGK
Procedure, shortened: as §1

Measured: odorant receptor agonist call

C=CCc1ccc(OC)c(OC)c1
active: O52N4
inactive: all other assays above

CC(=O)OC1CC2CCC1(C)C2(C)C (stereo not drawn)
active: O56A3
inactive: all other assays above

CC(=O)OC(C)(C)C1CC=C(C)CC1 (stereo not drawn)
inactive: all assays above

C=C(C)C1CCC2=CC(=O)CC(C)C2(C)C1 (stereo not drawn)
inactive: O52N2
active: O52N4 | O52R1 | O52W1

CCC1(O)C2(C)CCC(C2)C1(C)C (stereo not drawn)
inactive: all assays above

CC(C)(O)CCCC1=CCC(C=O)CC1 (stereo not drawn)
inactive: O52N2 | O52N4 | O52R1 | O52W1

CC12CCC(C1)C(C)(C)C2=O (stereo not drawn)
active: O52N4
inactive: all other assays above
